We go through nine compounds from PubChem BioAssay AID192 (DTP/NCI, 2004).

The list does not hold the whole screen: it is rich in T/C values a quarter to a half above the control, in often repeated tests (any T/C) and in doses without a T/C. Other doses and runs of a compound stand elsewhere. T/C is the treated group as % of the vehicle group. Some doses have a count of surviving animals in place of a T/C: the source holds a T/C of zero for them, seemingly a mark for toxic or unscored doses. Some doses without a T/C left all or most animals alive at the check, yet need not have been tolerated: survival well below the control is almost never listed, so the zero probably covers shortened survival too. Survivors were counted at the toxicity check, usually on the fifth day, unless a day is given; later deaths do not show. Schedule codes are those of the source, taken here to give the interval after Q, in days (D) or hours (H), and the number of doses after X. Where survival is the endpoint, this PubChem deposit counts one and a half times the control or more as active, and values a quarter to a half above the control carry no call in these data; other NCI protocols may use other cut-offs. Some T/C values are followed by the survivors on the day toxicity was checked, most often the fifth; without a count, all were alive then.

This test relates to BDF1 mice, B16 melanoma ip, median survival T/C. Put plainly: NCI In Vivo Anticancer Drug Screen. Data for tumor model B16 Melanoma (intraperitoneal) in B6D2F1 (BDF1) mice. As to conditions: T/C endpoint: median survival time, schedule: Q01DX009 (ip), higher T/C = longer survival. In a few lines: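 Antitumor activity is assessed in mice bearing a transplanted tumor, with survival or tumor size compared against vehicle-dosed controls and expressed as T/C.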

The mark [1] stands for this setting: dose: 25.0 mg/kg/injection, vehicle: Klucel (hydroxypropylcellulose) (HPC).

As for `Cc1ccc(C2(O)CCN(CCCC(=O)c3ccc(F)cc3)CC2)cc1`, the survivor count runs as follows: (dose: 100.0 mg/kg/injection, vehicle: Klucel (hydroxypropylcellulose) (HPC)) 4 of 10; (dose: 200.0 mg/kg/injection, vehicle: Klucel (hydroxypropylcellulose) (HPC)) 0 of 10; (dose: 400.0 mg/kg/injection, vehicle: Klucel (hydroxypropylcellulose) (HPC)) 0 of 10.

For the compound `C=C1C(C)C2C(Cc3ccccc3)NC(=O)C23C(OC(C)=O)C=CC(C)(O)C(=O)C(C)C/C=C/C3C1O` (stereo not given), the T/C (dose: 0.31 mg/kg/injection, vehicle: Klucel (hydroxypropylcellulose) (HPC)) is 143 % of control and the T/C (dose: 0.62 mg/kg/injection, vehicle: Klucel (hydroxypropylcellulose) (HPC)) was 129 % of control. The survivor count (dose: 10.0 mg/kg/injection, vehicle: Klucel (hydroxypropylcellulose) (HPC)) is 2 of 10.

On to `COc1cc(C=Nc2cccc(Br)c2)ccc1N(CCCl)CCCl`, for which the T/C (dose: 1.6 mg/kg/injection, vehicle: saline with Tween-80) was 125 % of control; the T/C (dose: 3.12 mg/kg/injection, vehicle: saline with Tween-80) is 145 % of control; the T/C (dose: 6.25 mg/kg/injection, vehicle: Klucel (hydroxypropylcellulose) (HPC)) is 142 % of control [9 of 10 alive]; the T/C under setting [1] is 131 % of control. Where the note is “dose: 25.0 mg/kg/injection, vehicle: saline with Tween-80”, the survivor count is 10 of 10.

On to `O=C1CN(CN2CCOCC2)C(=O)CN1CN1CCOCC1`, for which, under “dose: 400.0 mg/kg/injection, vehicle: saline”, the survivor count is recorded as 10 of 10.

As for `C=C1C(=O)OCC2C(C(=O)O)=CC3C(C)C(C)=CC123` (stereo not given), the survivor count (dose: 80.0 mg/kg/injection, vehicle: Klucel (hydroxypropylcellulose) (HPC)) is 10 of 10.

With `COc1cc([C@@H]2c3cc4c(cc3[C@@H](OC3OC5COC(C)OC5C(O)C3O)[C@H]3COC(=O)[C@H]23)OCO4)cc(OC)c1O` (stereo not given in full), the survivor count is 6 of 6 (dose: 16.0 mg/kg/injection, vehicle: Klucel (hydroxypropylcellulose) (HPC)); 10 of 10 (dose: 20.0 mg/kg/injection, vehicle: saline); 6 of 6 (dose: 32.0 mg/kg/injection, vehicle: Klucel (hydroxypropylcellulose) (HPC)); 10 of 10 (dose: 40.0 mg/kg/injection, vehicle: saline).

`Cn1c(C(Cl)Cl)nc2ccccc2c1=O`: under “dose: 100.0 mg/kg/injection, vehicle: saline with Tween-80”, the survivor count is listed as 6 of 6.

As for `CNC(=O)CCN1CCN(CC/C=C2\c3ccccc3Sc3ccc(Cl)cc32)CC1`, the T/C (dose: 0.25 mg/kg/injection, vehicle: saline) was 126 % of control. Besides, the survivor count (dose: 8.25 mg/kg/injection, vehicle: saline) was 9 of 10; the survivor count (dose: 16.5 mg/kg/injection, vehicle: saline) is reported as 0 of 10; the survivor count (dose: 33.0 mg/kg/injection, vehicle: saline) was 0 of 10; the survivor count (dose: 66.0 mg/kg/injection, vehicle: saline) is recorded as 0 of 10.

In the case of `C1CCC2[N-]CC3CCCCC3[N-]CC3CCCCC3[N-]CC3CCCCC3[N-]CC2C1.[Cu+2].[O-][Cl+3]([O-])([O-])O` (stereo not given), the survivor count reads like this: under setting [1], 10 of 10; (dose: 50.0 mg/kg/injection, vehicle: Klucel (hydroxypropylcellulose) (HPC)) 3 of 10.
